Measurements reported in PubChem BioAssay AID652243 (Drosophila RNAi Screening Center, 2013)
The screen tested about 24,000 reagents; below is a random part of those with a known target gene and a result. Over the whole deposit, 246 (1%) are marked active. 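Plates not normalised; calls are printed but the firefly/Renilla ratio behind them is not deposited; fold cut for lowering reported inconsistently.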 Raw values vary from plate to plate and are shown uncorrected. Reagents against one gene are numbered here. A plus sign joins genes that one reagent is predicted to hit. The record does not give: the amount of reagent.

Aim: 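Fly genes required for human androgen receptor driven transcription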 (primary screen)
Cells: Drosophila S2R+ cells
Reagents: long dsRNA against Drosophila genes
Time to read-out: 72 h (48 h, then 24 h hormone)
Treatment: synthetic androgen R1881 at 10 nM for 24 h
Read-out: 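Per-well raw luminescence of the androgen-driven firefly reporter and of the Renilla control, two replicates each, without normalisation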
Reading the numbers: firefly reporter light: higher = more light from androgen-responsive reporter; Renilla control light: higher = more constitutive control signal (cell number, transfection)
Call rule: 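Hit when the log firefly-to-Renilla ratio dropped or increased by a fixed fold versus the mean of GFP or LacZ controls across duplicate plates; lowering cut given as 1.5 and as 3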
Calls: active = hit: reporter lowered or raised; inactive = no hit

PK1-R: firefly reporter light, replicate 1 = 1.48e5; firefly reporter light, replicate 2 = 1.67e5; Renilla control light, replicate 1 = 2.06e6; Renilla control light, replicate 2 = 2.64e6; activity call = inactive
Cyp9h1 #1: firefly reporter light, replicate 1 = 2.53e5; firefly reporter light, replicate 2 = 2.44e5; Renilla control light, replicate 1 = 1.39e6; Renilla control light, replicate 2 = 1.33e6; activity call = inactive
Cyp9h1 #2: firefly reporter light, replicate 1 = 2.25e5; firefly reporter light, replicate 2 = 2.96e5; Renilla control light, replicate 1 = 3.62e5; Renilla control light, replicate 2 = 3.87e5; activity call = inactive
APP-BP1: firefly reporter light, replicate 1 = 3.29e5; firefly reporter light, replicate 2 = 1.96e5; Renilla control light, replicate 1 = 3.63e6; Renilla control light, replicate 2 = 3.28e6; activity call = inactive
mira #1: firefly reporter light, replicate 1 = 49057; firefly reporter light, replicate 2 = 64884; Renilla control light, replicate 1 = 7.37e5; Renilla control light, replicate 2 = 8.46e5; activity call = inactive
mira #2: firefly reporter light, replicate 1 = 4.79e5; firefly reporter light, replicate 2 = 3.81e5; Renilla control light, replicate 1 = 9.29e5; Renilla control light, replicate 2 = 6.63e5; activity call = inactive
CG16890 + p38b: activity call = inactive

Next part; the last 2 above are carried over.
mira #2: firefly reporter light, replicate 1 = 4.79e5; firefly reporter light, replicate 2 = 3.81e5; Renilla control light, replicate 1 = 9.29e5; Renilla control light, replicate 2 = 6.63e5; activity call = inactive
CG16890 + p38b: activity call = inactive
RabGGTb #1: firefly reporter light, replicate 1 = 6.86e5; firefly reporter light, replicate 2 = 7.81e5; Renilla control light, replicate 1 = 2.60e6; Renilla control light, replicate 2 = 2.03e6; activity call = inactive
RabGGTb #2: firefly reporter light, replicate 1 = 3.73e5; firefly reporter light, replicate 2 = 6.42e5; Renilla control light, replicate 1 = 4.42e5; Renilla control light, replicate 2 = 4.42e5; activity call = inactive
CG13843: firefly reporter light, replicate 1 = 2.31e5; firefly reporter light, replicate 2 = 2.41e5; Renilla control light, replicate 1 = 2.74e6; Renilla control light, replicate 2 = 2.24e6; activity call = inactive
DppIII #1: firefly reporter light, replicate 1 = 1.00e5; firefly reporter light, replicate 2 = 1.19e5; Renilla control light, replicate 1 = 1.66e6; Renilla control light, replicate 2 = 1.68e6; activity call = inactive
DppIII #2: firefly reporter light, replicate 1 = 2.05e5; firefly reporter light, replicate 2 = 1.72e5; Renilla control light, replicate 1 = 3.97e5; Renilla control light, replicate 2 = 6.97e5; activity call = inactive
CG32243: firefly reporter light, replicate 1 = 84285; firefly reporter light, replicate 2 = 1.64e5; Renilla control light, replicate 1 = 2.04e5; Renilla control light, replicate 2 = 3.71e5; activity call = inactive
Ctl1: firefly reporter light, replicate 1 = 64707; firefly reporter light, replicate 2 = 72918; Renilla control light, replicate 1 = 9.34e5; Renilla control light, replicate 2 = 1.16e6; activity call = inactive
CG12971 #1: firefly reporter light, replicate 1 = 2.04e5; firefly reporter light, replicate 2 = 1.58e5; Renilla control light, replicate 1 = 2.57e6; Renilla control light, replicate 2 = 2.40e6; activity call = inactive
CG12971 #2: firefly reporter light, replicate 1 = 6.78e5; firefly reporter light, replicate 2 = 8.11e5; Renilla control light, replicate 1 = 1.27e6; Renilla control light, replicate 2 = 1.31e6; activity call = inactive
Imp #1: firefly reporter light, replicate 1 = 1.73e6; firefly reporter light, replicate 2 = 1.04e6; Renilla control light, replicate 1 = 1.71e6; Renilla control light, replicate 2 = 8.71e5; activity call = inactive
Imp #2: firefly reporter light, replicate 1 = 90601; firefly reporter light, replicate 2 = 1.16e5; Renilla control light, replicate 1 = 7.05e5; Renilla control light, replicate 2 = 6.57e5; activity call = inactive
Imp #3: firefly reporter light, replicate 1 = 8.19e5; firefly reporter light, replicate 2 = 6.77e5; Renilla control light, replicate 1 = 2.19e5; Renilla control light, replicate 2 = 1.83e5; activity call = inactive
AnxB9 #1: firefly reporter light, replicate 1 = 85692; firefly reporter light, replicate 2 = 91748; Renilla control light, replicate 1 = 6.73e5; Renilla control light, replicate 2 = 6.40e5; activity call = inactive
AnxB9 #2: firefly reporter light, replicate 1 = 9.03e5; firefly reporter light, replicate 2 = 7.64e5; Renilla control light, replicate 1 = 9.03e5; Renilla control light, replicate 2 = 7.22e5; activity call = inactive
AnxB9 #3: firefly reporter light, replicate 1 = 8.38e5; firefly reporter light, replicate 2 = 7.75e5; Renilla control light, replicate 1 = 1.74e6; Renilla control light, replicate 2 = 1.54e6; activity call = inactive
